Results from the supplement of paper PMC10849652.
This is one part of the list.

The chains behind the UniProt entries cited, without tags or fusion partners. Where a name states a change or a piece, a line headed by the entry shows the natural chain unless it says otherwise.
UniProt Q02809: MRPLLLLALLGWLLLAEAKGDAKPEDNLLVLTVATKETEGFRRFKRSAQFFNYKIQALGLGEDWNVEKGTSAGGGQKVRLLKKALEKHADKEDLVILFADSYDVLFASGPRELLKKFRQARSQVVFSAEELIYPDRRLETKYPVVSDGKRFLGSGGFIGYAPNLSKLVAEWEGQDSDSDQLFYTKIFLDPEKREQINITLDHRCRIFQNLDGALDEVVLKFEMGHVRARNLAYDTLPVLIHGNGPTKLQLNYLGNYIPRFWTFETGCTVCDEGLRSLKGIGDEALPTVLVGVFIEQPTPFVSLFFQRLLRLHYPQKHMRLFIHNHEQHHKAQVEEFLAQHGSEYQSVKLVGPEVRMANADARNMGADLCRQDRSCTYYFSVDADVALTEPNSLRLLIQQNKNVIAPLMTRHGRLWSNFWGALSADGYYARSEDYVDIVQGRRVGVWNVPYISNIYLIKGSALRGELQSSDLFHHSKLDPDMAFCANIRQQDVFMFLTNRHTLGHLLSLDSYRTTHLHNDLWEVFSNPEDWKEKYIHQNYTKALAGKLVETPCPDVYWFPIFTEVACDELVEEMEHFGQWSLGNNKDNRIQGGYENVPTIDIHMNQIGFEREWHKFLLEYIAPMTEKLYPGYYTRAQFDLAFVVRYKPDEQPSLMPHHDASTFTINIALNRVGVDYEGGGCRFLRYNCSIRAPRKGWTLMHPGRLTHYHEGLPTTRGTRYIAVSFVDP
UniProt O75439: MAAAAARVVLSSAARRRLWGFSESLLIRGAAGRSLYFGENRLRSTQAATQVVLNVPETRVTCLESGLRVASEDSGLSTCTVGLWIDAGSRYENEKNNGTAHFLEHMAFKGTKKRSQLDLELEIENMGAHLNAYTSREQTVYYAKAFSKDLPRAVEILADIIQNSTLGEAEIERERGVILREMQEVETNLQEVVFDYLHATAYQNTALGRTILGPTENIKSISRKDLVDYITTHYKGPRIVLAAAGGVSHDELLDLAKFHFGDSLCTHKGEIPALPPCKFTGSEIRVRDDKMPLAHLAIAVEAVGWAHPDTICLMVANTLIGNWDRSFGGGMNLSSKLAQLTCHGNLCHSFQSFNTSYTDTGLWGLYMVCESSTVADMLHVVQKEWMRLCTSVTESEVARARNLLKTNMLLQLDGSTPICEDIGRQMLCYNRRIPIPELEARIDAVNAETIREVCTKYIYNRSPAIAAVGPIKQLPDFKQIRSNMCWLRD
UniProt O60664: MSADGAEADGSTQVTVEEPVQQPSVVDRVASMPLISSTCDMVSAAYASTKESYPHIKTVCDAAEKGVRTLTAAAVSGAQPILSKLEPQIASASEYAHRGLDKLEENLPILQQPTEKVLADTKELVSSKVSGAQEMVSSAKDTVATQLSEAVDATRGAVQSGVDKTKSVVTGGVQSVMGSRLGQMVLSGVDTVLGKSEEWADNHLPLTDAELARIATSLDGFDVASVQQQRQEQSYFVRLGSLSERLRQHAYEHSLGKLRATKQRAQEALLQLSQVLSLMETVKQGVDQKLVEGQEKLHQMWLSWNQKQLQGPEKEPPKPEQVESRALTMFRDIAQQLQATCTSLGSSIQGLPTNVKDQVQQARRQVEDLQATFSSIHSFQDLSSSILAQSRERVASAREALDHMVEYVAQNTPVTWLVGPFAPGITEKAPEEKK
UniProt Q8N490: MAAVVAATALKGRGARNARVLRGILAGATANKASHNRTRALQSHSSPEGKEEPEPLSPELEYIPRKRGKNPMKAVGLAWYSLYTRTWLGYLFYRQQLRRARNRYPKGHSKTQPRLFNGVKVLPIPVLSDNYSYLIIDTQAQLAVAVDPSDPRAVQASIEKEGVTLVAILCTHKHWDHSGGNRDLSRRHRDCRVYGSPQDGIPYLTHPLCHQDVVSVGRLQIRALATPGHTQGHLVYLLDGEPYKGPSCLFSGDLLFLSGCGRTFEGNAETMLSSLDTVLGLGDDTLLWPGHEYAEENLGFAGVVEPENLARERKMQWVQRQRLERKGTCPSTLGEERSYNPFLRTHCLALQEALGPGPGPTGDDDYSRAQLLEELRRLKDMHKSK
UniProt Q04941: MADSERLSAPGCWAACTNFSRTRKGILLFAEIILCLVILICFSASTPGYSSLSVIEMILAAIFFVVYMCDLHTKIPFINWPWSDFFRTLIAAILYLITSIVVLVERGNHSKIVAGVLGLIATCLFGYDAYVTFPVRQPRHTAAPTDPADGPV
UniProt Q9NRF9: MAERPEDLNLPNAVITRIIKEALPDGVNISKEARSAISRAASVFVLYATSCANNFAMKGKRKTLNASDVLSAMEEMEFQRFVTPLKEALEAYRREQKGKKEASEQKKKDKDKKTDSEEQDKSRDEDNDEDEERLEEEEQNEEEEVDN
UniProt Q9GZS1, whole entry, looked up: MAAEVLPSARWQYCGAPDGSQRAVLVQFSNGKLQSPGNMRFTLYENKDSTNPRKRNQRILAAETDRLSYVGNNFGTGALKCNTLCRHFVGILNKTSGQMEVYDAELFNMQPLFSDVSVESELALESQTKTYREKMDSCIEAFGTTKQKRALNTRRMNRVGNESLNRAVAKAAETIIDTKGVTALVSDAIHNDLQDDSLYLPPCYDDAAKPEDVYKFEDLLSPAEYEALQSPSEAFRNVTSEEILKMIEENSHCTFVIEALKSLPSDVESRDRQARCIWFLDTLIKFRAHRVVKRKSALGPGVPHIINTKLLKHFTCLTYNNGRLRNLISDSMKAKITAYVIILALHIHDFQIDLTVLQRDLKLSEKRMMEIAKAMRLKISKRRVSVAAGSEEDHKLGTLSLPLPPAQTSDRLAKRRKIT
UniProt O15305: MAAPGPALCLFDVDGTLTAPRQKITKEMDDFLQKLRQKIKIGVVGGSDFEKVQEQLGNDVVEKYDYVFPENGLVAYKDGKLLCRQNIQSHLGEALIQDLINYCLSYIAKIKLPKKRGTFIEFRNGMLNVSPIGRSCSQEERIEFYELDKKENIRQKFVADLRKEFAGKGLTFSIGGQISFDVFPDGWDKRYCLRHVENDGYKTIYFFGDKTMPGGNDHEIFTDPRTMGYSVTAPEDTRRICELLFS
UniProt P54277: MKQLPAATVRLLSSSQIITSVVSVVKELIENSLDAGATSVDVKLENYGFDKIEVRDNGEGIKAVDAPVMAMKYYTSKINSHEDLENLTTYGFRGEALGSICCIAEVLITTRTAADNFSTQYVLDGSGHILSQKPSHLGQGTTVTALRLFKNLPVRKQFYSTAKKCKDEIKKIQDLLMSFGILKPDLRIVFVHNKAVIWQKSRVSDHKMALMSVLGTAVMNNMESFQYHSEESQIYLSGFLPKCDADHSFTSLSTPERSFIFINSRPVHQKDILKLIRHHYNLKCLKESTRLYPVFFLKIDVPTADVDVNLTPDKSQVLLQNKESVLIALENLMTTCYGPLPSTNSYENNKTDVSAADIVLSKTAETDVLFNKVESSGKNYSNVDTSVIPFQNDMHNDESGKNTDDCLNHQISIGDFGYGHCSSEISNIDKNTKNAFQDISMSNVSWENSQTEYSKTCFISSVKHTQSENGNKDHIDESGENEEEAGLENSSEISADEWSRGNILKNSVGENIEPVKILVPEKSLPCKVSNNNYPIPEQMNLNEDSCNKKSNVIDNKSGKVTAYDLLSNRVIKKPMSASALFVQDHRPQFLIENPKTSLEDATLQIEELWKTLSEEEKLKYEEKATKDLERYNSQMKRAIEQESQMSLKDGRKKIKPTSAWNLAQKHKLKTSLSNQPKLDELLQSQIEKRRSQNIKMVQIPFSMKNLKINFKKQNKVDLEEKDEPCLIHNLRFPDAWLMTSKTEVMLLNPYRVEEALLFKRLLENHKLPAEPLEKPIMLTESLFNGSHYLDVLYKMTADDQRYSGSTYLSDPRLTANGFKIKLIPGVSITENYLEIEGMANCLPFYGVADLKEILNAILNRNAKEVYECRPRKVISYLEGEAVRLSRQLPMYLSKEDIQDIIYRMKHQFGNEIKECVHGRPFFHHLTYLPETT
UniProt Q7Z3K3: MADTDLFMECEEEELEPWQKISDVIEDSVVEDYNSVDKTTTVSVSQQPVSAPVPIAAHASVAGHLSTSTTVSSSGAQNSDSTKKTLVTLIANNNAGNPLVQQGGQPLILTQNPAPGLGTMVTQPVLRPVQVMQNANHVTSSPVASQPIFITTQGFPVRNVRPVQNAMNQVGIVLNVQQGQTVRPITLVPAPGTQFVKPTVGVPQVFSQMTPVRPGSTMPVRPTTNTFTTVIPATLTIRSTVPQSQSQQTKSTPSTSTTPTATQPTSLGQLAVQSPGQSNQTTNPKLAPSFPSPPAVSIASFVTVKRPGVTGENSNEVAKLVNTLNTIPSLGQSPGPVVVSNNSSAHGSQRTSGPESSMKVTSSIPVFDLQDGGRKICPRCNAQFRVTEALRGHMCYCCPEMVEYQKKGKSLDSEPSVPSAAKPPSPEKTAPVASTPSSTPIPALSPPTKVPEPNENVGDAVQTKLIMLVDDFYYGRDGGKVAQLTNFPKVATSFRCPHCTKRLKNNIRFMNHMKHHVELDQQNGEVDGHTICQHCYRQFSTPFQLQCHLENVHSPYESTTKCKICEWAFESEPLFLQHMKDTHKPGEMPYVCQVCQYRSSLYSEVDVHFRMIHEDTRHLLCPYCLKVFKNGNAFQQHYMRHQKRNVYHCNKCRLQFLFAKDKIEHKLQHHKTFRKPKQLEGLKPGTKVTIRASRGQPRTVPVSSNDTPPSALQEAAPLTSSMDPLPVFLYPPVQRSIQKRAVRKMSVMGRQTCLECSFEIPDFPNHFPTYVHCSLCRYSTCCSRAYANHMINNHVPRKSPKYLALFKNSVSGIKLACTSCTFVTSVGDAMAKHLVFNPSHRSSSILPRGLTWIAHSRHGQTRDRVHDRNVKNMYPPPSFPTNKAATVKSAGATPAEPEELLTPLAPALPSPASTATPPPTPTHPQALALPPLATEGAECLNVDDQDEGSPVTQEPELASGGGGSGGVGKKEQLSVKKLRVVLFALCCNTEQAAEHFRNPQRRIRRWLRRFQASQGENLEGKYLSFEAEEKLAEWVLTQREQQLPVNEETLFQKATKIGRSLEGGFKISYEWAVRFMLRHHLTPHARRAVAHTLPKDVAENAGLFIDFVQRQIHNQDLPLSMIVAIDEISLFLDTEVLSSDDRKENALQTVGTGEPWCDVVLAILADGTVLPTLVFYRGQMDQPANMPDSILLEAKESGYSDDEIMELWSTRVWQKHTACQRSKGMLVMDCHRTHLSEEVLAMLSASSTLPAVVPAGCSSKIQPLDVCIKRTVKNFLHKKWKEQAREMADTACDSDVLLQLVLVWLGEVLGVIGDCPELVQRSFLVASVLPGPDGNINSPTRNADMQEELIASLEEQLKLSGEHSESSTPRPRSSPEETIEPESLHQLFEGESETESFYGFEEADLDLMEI
UniProt Q9HBL7: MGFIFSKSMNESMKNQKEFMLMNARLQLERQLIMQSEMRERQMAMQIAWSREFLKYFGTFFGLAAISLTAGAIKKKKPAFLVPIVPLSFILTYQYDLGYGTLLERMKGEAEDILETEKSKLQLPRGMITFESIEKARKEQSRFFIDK
UniProt Q8WZA1: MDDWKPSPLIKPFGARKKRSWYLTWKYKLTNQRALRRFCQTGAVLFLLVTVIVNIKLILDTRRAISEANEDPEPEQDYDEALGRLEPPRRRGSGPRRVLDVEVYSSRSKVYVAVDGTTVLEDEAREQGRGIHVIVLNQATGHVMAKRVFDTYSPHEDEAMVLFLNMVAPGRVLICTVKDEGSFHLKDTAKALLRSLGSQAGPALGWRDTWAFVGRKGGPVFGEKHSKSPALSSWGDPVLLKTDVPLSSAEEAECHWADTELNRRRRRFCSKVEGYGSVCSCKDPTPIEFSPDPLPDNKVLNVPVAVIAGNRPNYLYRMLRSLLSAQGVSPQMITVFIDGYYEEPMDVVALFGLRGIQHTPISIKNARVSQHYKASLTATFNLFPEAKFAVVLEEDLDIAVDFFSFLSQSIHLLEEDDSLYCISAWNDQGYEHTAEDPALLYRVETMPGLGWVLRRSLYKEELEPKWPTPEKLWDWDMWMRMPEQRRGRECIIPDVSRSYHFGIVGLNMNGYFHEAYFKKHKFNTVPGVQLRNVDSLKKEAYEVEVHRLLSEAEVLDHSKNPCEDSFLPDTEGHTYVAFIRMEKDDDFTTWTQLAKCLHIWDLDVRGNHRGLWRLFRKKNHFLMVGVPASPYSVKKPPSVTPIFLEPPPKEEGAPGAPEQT
UniProt Q9Y535: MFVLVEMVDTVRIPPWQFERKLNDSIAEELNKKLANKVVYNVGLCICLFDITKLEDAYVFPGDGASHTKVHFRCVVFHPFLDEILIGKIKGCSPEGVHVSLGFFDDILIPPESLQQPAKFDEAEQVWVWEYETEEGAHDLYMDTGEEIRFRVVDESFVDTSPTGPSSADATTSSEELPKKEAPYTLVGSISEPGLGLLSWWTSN
UniProt P45877: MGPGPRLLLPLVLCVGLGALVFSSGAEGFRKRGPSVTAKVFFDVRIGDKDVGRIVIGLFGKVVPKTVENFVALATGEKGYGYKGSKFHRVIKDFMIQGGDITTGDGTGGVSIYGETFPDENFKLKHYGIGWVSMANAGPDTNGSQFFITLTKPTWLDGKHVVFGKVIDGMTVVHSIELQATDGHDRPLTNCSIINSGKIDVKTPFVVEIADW

Legend:
Assay in all cases: log2 fold change, soluble protein after heating vs DMSO (PISA); higher = thermal stabilisation; K562 lysate, 10 uM; active = over 0.2 and 3.5 SD of the protein, either way, in both replicates (recomputed)
[1] = compound: Cc1cn(-c2cc(NC(=O)c3ccc(C)c(Nc4nccc(-c5cccnc5)n4)c3)cc(C(F)(F)F)c2)cn1 [nilotinib]
Summary of the method: (§1)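 A 30 min treatment with 10 μM compound was applied to crude K562 extract at 1 mg/mL protein in PBS pH 7.4 with 1 mM MgCl2. Heating for 3 min spanned 48°C-58°C, after which aliquots were pooled, adjusted to 0.5% NP-40 at 4°C and spun at 21,000xg for 90 min. TMTpro 16plex LC-MS/MS of the supernatant, with channel sums equalised, gave values recorded as log-two fold change in thermal stability against solvent controls, from duplicates.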

[2] = compound: Cc1nc(Nc2n[nH]c3c2CN(C(=O)N[C@H](CN(C)C)c2ccccc2)C3(C)C)c2sccc2n1
Summary of the method: as §1

[3] = compound: Cc1nc(Nc2ncc(C(=O)Nc3c(C)cccc3Cl)s2)cc(N2CCN(CCO)CC2)n1 [dasatinib]
Summary of the method: as §1

[4] = compound: Cc1ncc(-c2ccnc(Nc3ccc(S(C)(=O)=O)cc3)n2)n1C(C)C
Summary of the method: as §1

[5] = compound: Cn1cc(-c2ccc3c(c2)CCN3C(=O)Cc2cccc(C(F)(F)F)c2)c2c(N)ncnc21
Summary of the method: as §1

[6] = compound: Cn1cc(CNCC2CCN(c3ncc(C(=O)NO)cn3)CC2)c2ccccc21 [quisinostat]
Summary of the method: as §1

[7] = compound: Cn1cncc1[C@@](N)(c1ccc(Cl)cc1)c1ccc2c(c1)c(-c1cccc(Cl)c1)cc(=O)n2C [tipifarnib]
Summary of the method: as §1

[8] = compound: NC(=O)Nc1cc(-c2cccc(F)c2)sc1C(=O)N[C@H]1CCCNC1
Summary of the method: as §1

[9] = compound: NC(=O)c1cnc(N[C@@H]2CCCC[C@@H]2N)nc1Nc1cccc(-n2nccn2)c1
Summary of the method: as §1

[10] = compound: NC1(c2ccc(-c3nc4ccn5c(=O)[nH]nc5c4cc3-c3ccccc3)cc2)CCC1
Summary of the method: as §1

[11] = compound: NCC(=O)Nc1ccc(-n2nc(C(F)(F)F)cc2-c2ccc3c(ccc4ccccc43)c2)cc1
Summary of the method: as §1

[12] = compound: O=C(CCCCCCC(=O)Nc1ccccc1)NO [vorinostat]
Summary of the method: as §1

[13] = compound: O=C(O)c1ccc2c(c1)nc(Nc1cccc(Cl)c1)c1ccncc12 [silmitasertib]
Summary of the method: as §1

[14] = compound: O=C1NC(=O)C(c2cnc3ccccn23)=C1c1cn2c3c(cc(F)cc13)CN(C(=O)N1CCCCC1)CC2
Summary of the method: as §1

[15] = compound: c1cn2cc(-c3ccc4cn[nH]c4c3)nc(Nc3ccc(N4CCOCC4)cc3)c2n1 [entospletinib]
Summary of the method: as §1

Row | Target | log2 fold change [1] | log2 fold change [2] | log2 fold change [3] | log2 fold change [4] | log2 fold change [5] | log2 fold change [6] | log2 fold change [7] | log2 fold change [8] | log2 fold change [9] | log2 fold change [10] | log2 fold change [11] | log2 fold change [12] | log2 fold change [13] | log2 fold change [14] | log2 fold change [15]
1 | PLOD1 (UniProt Q02809) | inactive: -0.016 | inactive: -0.02 | inactive: 0.008 | inactive: -0.049 | inactive: 0.004 | inactive: -0.008 | inactive: -0.01 | inactive: 0.03 | inactive: -0.016 | inactive: 0.018 | inactive: -0.011 | inactive: 0.072 | inactive: -0.017 | inactive: -0.024 | inactive: -0.01
2 | PMPCB (UniProt O75439) | inactive: -0.01 | inactive: 0.038 | inactive: 0.011 | inactive: 0.024 | inactive: 0.022 | inactive: 0.025 | inactive: 0.079 | inactive: 0.034 | inactive: 0.012 | inactive: 0.022 | inactive: 0.01 | inactive: 0.115 | inactive: -0.002 | inactive: -0.033 | inactive: -0.042
3 | PLIN3 (UniProt O60664) | inactive: 0.029 | inactive: -0.001 | inactive: 0.006 | inactive: 0.015 | inactive: -0.012 | inactive: 0.024 | inactive: 0.031 | inactive: -0.016 | inactive: -0.015 | inactive: 0.052 | inactive: 0.008 | inactive: 0.108 | inactive: -0.002 | inactive: -0.001 | inactive: 0.002
4 | PNKD isoform 2 (UniProt Q8N490) | inactive: 0.016 | inactive: -0.07 | inactive: -0.035 | inactive: 0.07 | inactive: -0.027 | inactive: 0.101 | inactive: 0.063 | inactive: 0.002 | inactive: 0.006 | inactive: -0.058 | inactive: -0.157 | inactive: 0.05 | inactive: -0.011 | inactive: -0.138 | inactive: 0.086
5 | POLR2L (UniProt P62875) | inactive: 0.065 | inactive: 0.097 | inactive: 0.031 | inactive: -0.036 | inactive: 0.055 | inactive: 0.071 | inactive: 0 | inactive: -0.029 | inactive: -0.065 | inactive: 0.144 | inactive: -0.012 | inactive: -0.149 | inactive: 0.027 | inactive: 0.015 | inactive: -0.043
6 | POLR1C (UniProt O15160) | inactive: -0.001 | inactive: -0.009 | inactive: -0.029 | inactive: -0.027 | inactive: -0.013 | inactive: -0.02 | inactive: 0.007 | inactive: 0.018 | inactive: -0.001 | inactive: 0.033 | inactive: -0.045 | inactive: -0.162 | inactive: 0.059 | inactive: 0.018 | inactive: -0.068
7 | PLP2 (UniProt Q04941) | inactive: -0.129 | inactive: 0.046 | inactive: -0.096 | inactive: 0.109 | inactive: -0.004 | inactive: 0.075 | inactive: 0.106 | inactive: -0.035 | inactive: -0.001 | inactive: -0.021 | inactive: -0.027 | inactive: 0.28 | inactive: -0.198 | inactive: -0.028 | inactive: -0.112
8 | POLR2A, A0A590UJN4 | inactive: -0.084 | inactive: 0.016 | inactive: -0.012 | inactive: 0.027 | inactive: 0.031 | inactive: -0.037 | inactive: -0.006 | inactive: 0.004 | inactive: 0.003 | inactive: -0.028 | inactive: 0.012 | inactive: -0.085 | inactive: -0.014 | inactive: 0.05 | inactive: 0.013
9 | POLE3 (UniProt Q9NRF9) | inactive: -0.005 | inactive: -0.002 | inactive: -0.031 | inactive: 0.001 | inactive: -0.053 | inactive: 0.075 | inactive: 0.02 | inactive: -0.019 | inactive: -0.002 | inactive: -0.019 | inactive: -0.011 | inactive: 0.086 | inactive: -0.01 | inactive: -0.001 | inactive: 0.023
10 | POLR1E (UniProt Q9GZS1) | inactive: -0.014 | inactive: 0.021 | inactive: -0.067 | inactive: 0 | inactive: 0.043 | inactive: -0.015 | inactive: 0.005 | inactive: 0.045 | inactive: -0.014 | inactive: -0.013 | inactive: -0.005 | inactive: -0.167 | inactive: 0.069 | inactive: 0.002 | inactive: 0
11 | PMM2 (UniProt O15305) | inactive: -0.025 | inactive: 0.009 | inactive: 0.019 | inactive: -0.034 | inactive: 0.011 | inactive: 0.02 | inactive: 0.044 | inactive: 0 | inactive: 0.025 | inactive: 0.059 | inactive: 0.022 | inactive: -0.082 | inactive: 0.059 | inactive: -0.038 | inactive: -0.01
12 | PMS1 (UniProt P54277) | inactive: -0.022 | inactive: 0 | inactive: -0.011 | inactive: -0.001 | inactive: 0.017 | inactive: -0.086 | inactive: 0.058 | inactive: 0.041 | – | inactive: -0.029 | inactive: 0.01 | active: -0.342 | inactive: 0.018 | inactive: 0.026 | inactive: -0.011
13 | POGZ (UniProt Q7Z3K3) | inactive: -0.039 | inactive: 0.034 | inactive: -0.198 | inactive: 0.084 | inactive: 0.143 | inactive: -0.012 | inactive: 0.097 | inactive: 0.007 | inactive: 0.116 | – | inactive: 0.021 | – | – | inactive: 0.038 | inactive: -0.026
14 | POLR2B (UniProt P30876) | inactive: -0.027 | inactive: 0.01 | inactive: -0.065 | inactive: 0.004 | inactive: 0.003 | inactive: -0.057 | inactive: -0.012 | inactive: 0.027 | inactive: -0.004 | inactive: -0.03 | inactive: 0.03 | active: -0.344 | inactive: 0.034 | inactive: 0.024 | inactive: -0.008
15 | PLGRKT (UniProt Q9HBL7) | inactive: 0.028 | inactive: 0.003 | inactive: -0.173 | inactive: -0.083 | inactive: 0 | inactive: -0.014 | inactive: -0.067 | inactive: 0.078 | – | inactive: 0.001 | inactive: -0.06 | inactive: 0.034 | inactive: -0.001 | inactive: 0.073 | inactive: -0.154
16 | PLIN2 (UniProt Q99541) | inactive: 0.088 | inactive: -0.012 | inactive: -0.092 | inactive: 0 | inactive: 0.008 | inactive: -0.031 | inactive: -0.153 | inactive: 0.038 | inactive: -0.003 | inactive: -0.018 | inactive: 0.012 | inactive: 0.063 | inactive: -0.008 | inactive: 0.008 | inactive: -0.032
17 | POMGNT1 isoform 2 (UniProt Q8WZA1) | inactive: -0.088 | inactive: 0.021 | inactive: -0.206 | inactive: -0.201 | inactive: -0.008 | inactive: -0.08 | inactive: 0.006 | inactive: 0.035 | inactive: -0.014 | inactive: 0.022 | inactive: 0.042 | inactive: -0.009 | inactive: -0.056 | inactive: 0.009 | inactive: -0.008
18 | POLR3H (UniProt Q9Y535) | inactive: 0.019 | inactive: -0.104 | inactive: -0.013 | inactive: 0.015 | inactive: 0.037 | inactive: -0.038 | inactive: 0.28 | inactive: -0.023 | inactive: 0 | inactive: 0.189 | inactive: 0.003 | inactive: -0.205 | inactive: -0.129 | inactive: 0.063 | inactive: -0.031
19 | PPIC (UniProt P45877) | inactive: -0.112 | inactive: 0.069 | inactive: 0.037 | inactive: -0.02 | inactive: -0.036 | inactive: -0.063 | inactive: 0.145 | inactive: 0.206 | – | inactive: -0.045 | inactive: 0.12 | inactive: 0.044 | inactive: 0.021 | inactive: 0.262 | –

Retrieved one by one from above (2):
Row | Target | log2 fold change [1] | log2 fold change [2] | log2 fold change [3] | log2 fold change [4] | log2 fold change [5] | log2 fold change [6] | log2 fold change [7] | log2 fold change [8] | log2 fold change [9] | log2 fold change [10] | log2 fold change [11] | log2 fold change [12] | log2 fold change [13] | log2 fold change [14] | log2 fold change [15]
8 | POLR2A, A0A590UJN4 | inactive: -0.084 | inactive: 0.016 | inactive: -0.012 | inactive: 0.027 | inactive: 0.031 | inactive: -0.037 | inactive: -0.006 | inactive: 0.004 | inactive: 0.003 | inactive: -0.028 | inactive: 0.012 | inactive: -0.085 | inactive: -0.014 | inactive: 0.05 | inactive: 0.013
15 | PLGRKT (UniProt Q9HBL7) | inactive: 0.028 | inactive: 0.003 | inactive: -0.173 | inactive: -0.083 | inactive: 0 | inactive: -0.014 | inactive: -0.067 | inactive: 0.078 | – | inactive: 0.001 | inactive: -0.06 | inactive: 0.034 | inactive: -0.001 | inactive: 0.073 | inactive: -0.154
